# “And” between values parts separate entries of the source, which are not always exact repeats. Equal entries are not always repeated. Hit rate of the full screen: of about 310,000 compounds, about 17,000 (5.5%) were called active. This list was built around the results that the source calls inconclusive (neither active nor inactive); the mix of calls is not that of the screen. Calls follow the shape of the dose curve; as a rule, active = well fitted inhibition curve with a large enough effect; inconclusive = small, poorly fitted or top-dose-only effect, or effect the other way; inactive = no such curve, though single readings can be large or run the other way. Where the call is inconclusive, the potency comes from a doubtful curve fit. More than one record can exist for a structure, and the calls need not agree.
# Chains of the proteins cited; added tags and fusions are not shown. Lines headed by an entry give the natural chain unless they say otherwise; changes in a name come on top.
# UniProt P51450: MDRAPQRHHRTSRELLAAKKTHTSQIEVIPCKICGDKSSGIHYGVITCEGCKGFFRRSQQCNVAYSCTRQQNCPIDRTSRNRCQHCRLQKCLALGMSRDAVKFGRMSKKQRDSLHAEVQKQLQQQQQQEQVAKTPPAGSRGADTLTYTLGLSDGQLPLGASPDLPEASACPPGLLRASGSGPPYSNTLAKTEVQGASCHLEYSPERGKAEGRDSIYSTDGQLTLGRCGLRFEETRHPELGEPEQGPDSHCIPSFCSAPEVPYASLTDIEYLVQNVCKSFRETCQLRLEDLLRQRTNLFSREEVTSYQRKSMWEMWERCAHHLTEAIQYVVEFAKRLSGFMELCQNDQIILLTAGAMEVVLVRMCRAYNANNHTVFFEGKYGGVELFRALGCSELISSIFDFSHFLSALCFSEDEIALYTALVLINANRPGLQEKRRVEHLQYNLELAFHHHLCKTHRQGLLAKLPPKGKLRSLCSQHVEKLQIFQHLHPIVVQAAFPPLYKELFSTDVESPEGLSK
# Target: Nuclear receptor ROR-gamma (Mus musculus) (UniProt P51450)
# Assay: qHTS for inhibitors of ROR gamma transcriptional activity; also: nearly all actives have a fitted effect of over 60% in size
# Settings: Drosophila S2 Gal4-RORgamma UAS-luciferase reporter, 20 h; activity change, negative = inhibition: at 53.6 µM (top of the series)
# Summary of the method: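 Compounds are pin-transferred onto Drosophila Schneider cells expressing a copper-inducible Gal4–ROR gamma transactivation domain fusion. After 1 hr, copper sulfate is added to 700 uM final; luciferase is read 20 hr later.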
# % is scaled to controls: 0 for no effect and ±100 for the full control effect; potency is read from the fitted curve at half-maximal effect.
SMILES,"activity change, negative = inhibition",Potency
O=[N+]([O-])c1ccc(N2CCOCC2)c2cccnc12,inactive: -34.1%,
CCOC(=O)c1c(C)n(Cc2ccco2)c2c1cc(O)c1ccccc12,,"inconclusive: 22.4 µM [inhibitor, single point]"
Cc1cccn2c(=O)c3c(nc12)N1CCc2ccccc2C1C1(C3)C(=O)NC(=O)N(C)C1=O (stereo not given),inactive: 22.4%,
COc1ccc(Oc2cc(NC(=O)c3nn(C)cc3[N+](=O)[O-])cc([N+](=O)[O-])c2)cc1,inactive: 7.51%,
COc1ccc(N2C(=O)NC(=O)/C(=C/c3cccc(OC(=O)c4cccs4)c3)C2=O)cc1Cl,inactive: -4.16%,
CCCCC[C@@H](/C=C/C=C\CCCCCCCCCC(=O)O)OO,inactive: -0.384%,
O=C(Nc1cccc(C(=O)Nc2cc(C(=O)Nc3ccc([S+](=O)([O-])[O-])c4cc([S+](=O)([O-])[O-])cc(SOOO)c34)ccc2F)c1)Nc1cccc(C(=O)Nc2cc(C(=O)Nc3ccc([S+](=O)([O-])[O-])c4cc([S+](=O)([O-])[O-])cc([S+](=O)([O-])[O-])c34)ccc2F)c1,inactive: 7.26%,
COc1ccccc1OCC#CCN1CCCC(C)C1 (stereo not given),inactive: -3.76%,
c1ccc2c(NC3=NCCS3)cccc2c1,,"inconclusive: 35.5 µM [inhibitor, single point]"
Cc1ccccc1CS(=O)(=O)Cc1ccc(C(=O)N2CCC3(CC2)OCCO3)o1,inactive: 7.51%,
COc1cccc(N2CCN(C(=O)C3CCCN(S(=O)(=O)c4ccc5c(c4)oc(=O)n5C)C3)CC2)c1 (stereo not given),,"inconclusive: 17.8 µM [activator, single point]"
COc1ccc(/C=C2\C(=O)NC(=S)N(C)C2=O)cc1C,inactive: -12.7%,
CCc1ccc(OCC(=O)N2CCN(Cc3ccc4c(c3)OCO4)CC2)cc1,inactive: 17.1%,
COc1cccc(NP(=O)(Oc2ccc(Cl)cc2)Oc2ccc(Cl)cc2)c1,,"inconclusive: 20 µM [activator, single point]"
Fc1ccc2c(c1)nnn2C1CCN(Cc2c(Cl)cccc2Cl)CC1,,"inconclusive: 35.5 µM [activator, partial curve]"
CCCCC/C=C\C/C=C\C/C=C\C/C=C\CCCC(=O)Nc1ccc(O)cc1,,inactive
O=C(/C=C\c1ccc(Cl)cc1)N[C@@]12CCC(=O)[C@@H]3Oc4c(O)ccc5c4[C@@]31CCN(CC1CC1)[C@@H]2C5,inactive: -6.12%,
Cc1c(C(=O)Nc2ccccc2)c2cc(O)ccc2n1Cc1ccccc1,,"inconclusive: 14.1 µM [activator, single point]"
CN1CCN(C(=O)COc2ccc(S(=O)(=O)N(C)Cc3ccccc3)cc2)CC1,,"inconclusive: 6.31 µM [inhibitor, single point]"
COC(=O)Cn1cc(/C=C2\C(=O)NC(=O)N(c3ccccc3)C2=O)c2ccccc21,,"inconclusive: 22.4 µM [activator, single point]"
ClC1=C(Cl)C(Cl)(C2(Cl)C(Cl)=C(Cl)C(Cl)=C2Cl)C(Cl)=C1Cl,,active: 8.91 µM
Cc1cccc(C)c1NC1=NCCCS1,,active: 10 µM
COCCNC(=O)c1c(N)n(Cc2ccco2)c2nc3ccccc3nc12,,"inconclusive: 12.6 µM [activator, single point]"
COCCCNC(=O)c1c(N)n(Cc2ccco2)c2nc3ccccc3nc12,,"inconclusive: 10 µM [activator, partial curve]"

SMILES,"activity change, negative = inhibition",Potency
O=C1NC(=O)N(Cc2ccccc2Cl)C(=O)/C1=C/N1CCOCC1,inactive: -31.2%,
CC(=O)O[C@@H]1[C@@H](O)C2OC3C=C(C)C(=O)[C@@H](O)[C@]3(CO)C1(C)C21CO1 (stereo not given in full),,active: 0.631 µM
Cn1c(NN=O)nc2ccccc21,,active: 0.0355 µM
CC(C)c1cc2c(c(O)c1O)[C@]1(C(=O)O)CCCC(C)(C)C1CC2 (stereo not given in full),inactive: -7.11%,
N#CC1=C(N)Oc2c(c(=O)sc3ccccc23)C1c1ccncc1 (stereo not given),,"inconclusive: 10 µM [inhibitor, partial curve]"
CCCCn1c(NC(=O)c2ccc(Br)o2)c(C(=O)OCC)c2nc3ccccc3nc21,,"inconclusive: 35.5 µM [inhibitor, single point]"
Cc1nc2ccccc2c(=O)n1-c1ccccc1[N+](=O)[O-],inactive: -15%,
COC(=O)C(Cc1ccc(N(CCCl)CCCl)cc1)N=Cc1ccccc1O (stereo not given),,active: 7.94 µM
Cc1ccc(C(O)(c2ccc(C)c(C)c2)C2CN3CCC2CC3)cc1C (stereo not given),,"inconclusive: 1.78 µM [inhibitor, partial curve]"
Cc1cc(C=C2C(=O)N(C)C(=S)N(C)C2=O)c(C)n1C1CCCC1,,"inconclusive: 11.2 µM [activator, partial curve, poor fit]"
CC(C)N1C(=O)NC(=O)C2(Cc3cc([N+](=O)[O-])ccc3N(C)C2c2ccccc2)C1=O (stereo not given),,"inconclusive: 20 µM [activator, single point]"
Cc1ccc(-n2c(C)cc(/C=C3/C(=O)NC(=O)N(Cc4ccco4)C3=O)c2C)cc1,inactive: -11.1%,
CCN(CC)C(=S)NCCc1ccccc1,,"inconclusive: 12.6 µM [inhibitor, single point]"
CC(=O)OCC1=C(C(=O)O)N2C(=O)C(NC(=O)CCCC(N)C(=O)O)C2SC1 (stereo not given),inactive: 2.31%,
Cc1cccc(N2C(=O)NC(=O)/C(=C\c3cccn3-c3ccc(Cl)cc3)C2=O)c1,,"inconclusive: 20 µM [inhibitor, single point]"
Cc1cccn2c(=O)c3c(nc12)N1CCC(Cc2ccccc2)CC1C1(C3)C(=O)N(C)C(=O)N(C)C1=O (stereo not given),inactive: -4.78%,
Cc1cccc(CN2CCCC(C(=O)c3cccc(OC(C)C)c3)C2)n1 (stereo not given),,active: 2.24 µM
Cc1ccc(C(=O)n2c(N)nc3ccccc32)cc1,,active: 1.58 µM
CN(C)C(Cc1ccc(Cl)cc1)C(=O)c1ccccc1 (stereo not given),,"inconclusive: 35.5 µM [activator, single point]"
CCCCn1c(=O)c(C(=O)Nc2ccccc2)c(O)c2ccccc21,inactive: -3.88%,
O=C(c1ccoc1)N1CCCC(N2CCN(c3cccc(C(F)(F)F)c3)CC2)C1 (stereo not given),,"inconclusive: 35.5 µM [activator, single point]"
O=C(CCC(=O)N1CC2C[C@@H](C1)Cn1c2cccc1=O)NCCc1ccccc1,inactive: -10%,
COc1ccc(OC)c(N2C(=O)NC(=O)/C(=C\c3ccc([N+](=O)[O-])s3)C2=O)c1,,active: 6.31 µM
Cc1ccc(NC(=S)NCC2CCCO2)cc1 (stereo not given),,"inconclusive: 6.31 µM [inhibitor, single point]"

# For convenience, three of the compounds above.
SMILES,"activity change, negative = inhibition",Potency
Fc1ccc2c(c1)nnn2C1CCN(Cc2c(Cl)cccc2Cl)CC1,,"inconclusive: 35.5 µM [activator, partial curve]"
CCCCC/C=C\C/C=C\C/C=C\C/C=C\CCCC(=O)Nc1ccc(O)cc1,,inactive
O=C(/C=C\c1ccc(Cl)cc1)N[C@@]12CCC(=O)[C@@H]3Oc4c(O)ccc5c4[C@@]31CCN(CC1CC1)[C@@H]2C5,inactive: -6.12%,

# Later entries

SMILES,"activity change, negative = inhibition",Potency
COc1ccc2c(c1)[nH]c1c(C)nccc12,,active: 8.91 µM
O=C(C1CCN(S(=O)(=O)N2CCOCC2)CC1)N1CCC2(CC1)OCCO2,inactive: 6.03%,
Oc1c(Cl)c(Cl)c(Cl)c(Cl)c1Cl,,"inconclusive: 12.6 µM [activator, single point] and inconclusive: 15.8 µM [activator, single point]"
Nc1c(C(=O)NCc2ccco2)c2nc3ccccc3nc2n1Cc1ccc(F)cc1,inactive: -39.1%,
Cc1cc(C(=O)Cn2nnc(-c3ccc(Cl)cc3)n2)c(C)n1-c1ccccc1,,"inconclusive: 12.6 µM [activator, single point]"
COc1ccc(Cl)cc1C(=O)C1CCCN(Cc2cnc(C)s2)C1 (stereo not given),,"inconclusive: 15.8 µM [inhibitor, single point]"
CCSc1nnc([C@@H](N)Cc2ccccc2)o1,,"inconclusive: 5.01 µM [inhibitor, single point]"
CCCCn1c(O)c(/C=N/NC(=O)c2ccncc2)c(=O)[nH]c1=S,,"inconclusive: 5.01 µM [inhibitor, partial curve, poor fit]"
N#CC(C(=O)C12CC3CC(CC(C3)C1)C2)c1nc2ccccc2[nH]1 (stereo not given),,active: 3.98 µM
COc1ccc2c(c1)/C(=C/c1cnc[nH]1)C(=O)N2,,"inconclusive: 3.98 µM [activator, partial curve] and inconclusive: 1.58 µM [activator, full curve]"
CC[C@@]1(O)C(=O)OCc2c1cc1n(c2=O)Cc2cc3cc(O)ccc3nc2-1,,"inconclusive: 1.58 µM [inhibitor, full curve] and inconclusive: 14.1 µM [inhibitor, single point]"
CNC(=O)COC(=O)c1ccc(-c2nc3ccccc3s2)s1,,active: 0.501 µM
Cc1cc(NC(=O)CCl)on1,,"inconclusive: 25.1 µM [inhibitor, single point]"
O=C(c1csc2c1CCCCC2)N1CCC2(CC1)OCCO2,,"inconclusive: 6.31 µM [inhibitor, single point]"
COc1ccc2c(c1OC)C(=O)OC2c1c(O)n(C2CCCCC2)c(=O)[nH]c1=O (stereo not given),inactive: 6.28%,
CCOC(=O)CNC(=O)N1c2ccccc2Sc2ccccc21,,"inconclusive: 35.5 µM [activator, single point]"
CC(C)n1c(N2CCN(S(=O)(=O)c3cccc([N+](=O)[O-])c3)CC2)nc2ccccc21,,"inconclusive: 35.5 µM [activator, single point]"
CC(C)c1ccc(N2C(=O)CC(=O)NC2=O)cc1,inactive: 11.5%,
CCCCOC(=O)N(C)SN(C)C(=O)Oc1cccc2c1OC(C)(C)C2,,"inconclusive: 35.5 µM [inhibitor, single point]"
CCN1c2nc3ccccn3c(=O)c2CC2(C(=O)N(C)C(=O)N(C)C2=O)C1C (stereo not given),,"inconclusive: 0.224 µM [activator, full curve, poor fit]"
O=C(c1ccc(C(F)(F)F)cc1)C1CCCN(Cc2ccncc2)C1 (stereo not given),,"inconclusive: 2.24 µM [inhibitor, partial curve]"
COc1cc(NS(=O)(=O)c2ccc(NC(=S)NC(=O)CC(C)C)cc2)nc(OC)n1,,"inconclusive: 0.0056 µM [activator, full curve, poor fit]"

# From PubChem BioAssay AID2551 (National Center for Advancing Translational Sciences (NCATS), 2010)
